# Results taken from patent publication US20060052597A1, “Aryloxyalkylamine derivatives as h3 receptor ligands” (priority 2002, published 2006).
# By UniProt entry, the sequences of proteins in these tests, tags left out. Where a name states a change or a piece, a line headed by the entry shows the natural chain unless it says otherwise.
# UniProt Q9Y5N1: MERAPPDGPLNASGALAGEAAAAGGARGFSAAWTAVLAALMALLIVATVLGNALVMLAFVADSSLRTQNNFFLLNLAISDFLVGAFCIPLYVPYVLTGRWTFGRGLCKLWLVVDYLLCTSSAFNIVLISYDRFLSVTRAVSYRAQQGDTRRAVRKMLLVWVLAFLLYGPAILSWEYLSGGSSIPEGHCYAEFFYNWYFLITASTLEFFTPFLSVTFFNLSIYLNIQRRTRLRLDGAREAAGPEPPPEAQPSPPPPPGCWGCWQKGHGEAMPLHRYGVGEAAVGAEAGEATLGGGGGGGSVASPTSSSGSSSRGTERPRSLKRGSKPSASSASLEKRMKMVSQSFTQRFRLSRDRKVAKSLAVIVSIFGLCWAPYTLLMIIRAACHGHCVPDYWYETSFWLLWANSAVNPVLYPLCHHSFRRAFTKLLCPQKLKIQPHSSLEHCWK
# Some results were stated once for a whole list of compounds, not compound by compound. At least one structure is not confirmed: it was looked up by name or label, or the drawing left a doubt.
# Biological target: T1, histamine H3 receptor (Homo sapiens, UniProt Q9Y5N1)
# T1 construct: expressed in transfected cells; host or cells: CHO K1 cells carrying pSwitch, transfected with pGeneH3 and induced with mifepristone; clone 3H3; membrane preparation
# Assay: Histamine H3 functional antagonist assay ([35S]GTPγS SPA on membranes)
# Assay type: biochemical
# Details: membranes of CHO K1 clone 3H3 expressing human histamine H3, histamine 0.3 μM, guanosine 5'[γ35-S]thiotriphosphate 0.38 nM
# Protocol: A membrane preparation containing histamine H3 receptors may be prepared in accordance with the following procedures:
# Ligated DNA was transformed into competent DH5α E. coli host bacterial cells and plated onto Luria Broth (LB) agar containing Zeocin™ (an antibiotic which allows the selection of cells expressing the sh ble gene which is present on pGene and pSwitch) at 50 μg ml^−1. Colonies containing the religated plasmid were identified by restriction analysis. DNA for transfection into mammalian cells was prepared from 250 ml cultures of the host bacterium containing the pGeneH3 plasmid and isolated using a DNA preparation kit (Qiagen Midi-Prep) as per manufacturers guidelines (Qiagen).
# CHO K1 cells previously transfected with the pSwitch regulatory plasmid (InVitrogen) were seeded at 2×10e6 cells per T75 flask in Complete Medium, containing Hams F12 (GIBCOBRL, Life Technologies) medium supplemented with 10% v/v dialysed foetal bovine serum, L-glutamine, and hygromycin (100 μg ml^−1), 24 hours prior to use. Plasmid DNA was transfected into the cells using Lipofectamine plus according to the manufacturers guidelines (InVitrogen). 48 hours post transfection cells were placed into complete medium supplemented with 500 μg ml^−1 Zeocin™.
# 10-14 days post selection 10 nM Mifepristone (InVitrogen), was added to the culture medium to induce the expression of the receptor.
# Approximately 1×10e7 cells were examined for receptor expression by staining with a rabbit polyclonal antibody, 4a, raised against the N-terminal domain of the histamine H3 receptor, incubated on ice for 60 minutes, followed by two washes in sorting medium.
# Following two further washes with Sorting Medium, cells were filtered through a 50 μm Filcon™ (BD Biosciences) and then analysed on a FACS Vantage SE Flow Cytometer fitted with an Automatic Cell Deposition Unit. […] Positively stained cells were sorted as single cells into 96-well plates, containing Complete Medium containing 500 μg ml^−1 Zeocin™ and allowed to expand before reanalysis for receptor expression via antibody and ligand binding studies.
# All steps of the protocol are carried out at 4° C. and with pre-cooled reagents. The cell pellet is resuspended in 10 volumes of buffer A2 containing 50 mM N-2-hydroxyethylpiperazine-N′-2-ethanesulfonic acid (HEPES) (pH 7.40) supplemented with […] leupeptin (acetyl-leucyl-leucyl-arginal; Sigma L2884), 25 μg/ml bacitracin (Sigma B0125), 1 mM ethylenediamine tetra-acetic acid (EDTA), 1 mM phenylmethylsulfonyl fluoride (PMSF) and 2×10e-6M pepstain A (Sigma). The cells are then homogenised by 2×15 second bursts in a 1 litre glass Waring blender, followed by centrifugation at 500 g for 20 minutes. The supernatant is then spun at 48,000 g for 30 minutes. The pellet is resuspended in 4 volumes of buffer A2 by vortexing for 5 seconds, followed by homogenisation in a Dounce homogeniser (10-15 strokes). At this point the preparation is aliquoted into polypropylene tubes and stored at −70° C. […]
# The plate is then incubated on a shaker at room temperature for 30 minutes followed by centrifugation for 5 minutes at 1500 rpm. The plate is read between 3 and 6 hours after completion of centrifuge run in a Wallac Microbeta counter on a 1 minute normalised tritium count protocol. Data is analysed using a 4-parameter logistic equation. Basal activity used as minimum i.e. histamine not added to well.
SMILES,pKb,other results
O=C(c1ccc(OC2CCN(C3CCC3)CC2)cc1)N1CCN(C(=O)c2ccc(C(F)(F)F)nc2)CC1 [Example E136],> 8.5,pKb (listed as Example E136): > 7.5
O=C(c1ccc(OC2CCN(C3CCC3)CC2)cc1)N1CCN(C(=O)C2CCOCC2)CC1 [Example E138],> 8.5,pKb (listed as Example E138): > 7.5
O=C(c1ccc(OC2CCN(C3CCCC3)CC2)cc1)N1CCN(C(=O)c2cccc(Cl)c2)CC1 [Example E141],> 8.5,pKb (listed as Example E141): > 7.5
O=C(c1ccc(OC2CCN(C3CCCC3)CC2)cc1)N1CCN(C(=O)N2CCCC2)CC1 [Example E142],> 8.5,pKb (listed as Example E142): > 7.5
O=C(c1ccc(OC2CCN(C3CCCC3)CC2)cc1)N1CCN(C(=O)c2ccc(C(F)(F)F)nc2)CC1 [Example E144],> 8.5,pKb (listed as Example E144): > 7.5
O=C(c1ccc(OC2CCN(C3CCCC3)CC2)cc1)N1CCN(C(=O)C2CCOCC2)CC1 [Example E146],> 8.5,pKb (listed as Example E146): > 7.5
O=C(c1ccc(OCCCN2CCCCC2)cc1)N1CCC(O)(c2ccccc2)CC1 [Example E152],> 7.5,–
O=C(c1ccc(OCCCN2CCCCC2)cc1)N1CCC2(C=Cc3ccccc32)CC1 [Example E161],> 7.5,–
O=C(c1ccc(OCCCN2CCCCC2)cc1)N1CCC2(CC1)CN(c1ccccc1)C(=O)O2 [Example E162],> 8.5,pKb (listed as Example E162): > 7.5
O=S(=O)(c1ccc(OCCCN2CCCCC2)cc1)N1CCC(c2ccccc2)CC1 [Example E165],> 8.5,pKb (listed as Example E165): > 7.5
O=S(=O)(c1ccc(OCCCN2CCCCC2)cc1)N1CCN(c2ccccc2)CC1 [Example E168],> 7.5,–
